Source: the supplement of paper PMC3334620
The full ranking holds about 33,000 sequences; the median of “E-score (-0.5 to 0.5)” is about -0.0034, and the highest 2% start at about 0.25. This is one part of the list.

Target: T1, Yap3 (UniProt P38749)
T1 sequence: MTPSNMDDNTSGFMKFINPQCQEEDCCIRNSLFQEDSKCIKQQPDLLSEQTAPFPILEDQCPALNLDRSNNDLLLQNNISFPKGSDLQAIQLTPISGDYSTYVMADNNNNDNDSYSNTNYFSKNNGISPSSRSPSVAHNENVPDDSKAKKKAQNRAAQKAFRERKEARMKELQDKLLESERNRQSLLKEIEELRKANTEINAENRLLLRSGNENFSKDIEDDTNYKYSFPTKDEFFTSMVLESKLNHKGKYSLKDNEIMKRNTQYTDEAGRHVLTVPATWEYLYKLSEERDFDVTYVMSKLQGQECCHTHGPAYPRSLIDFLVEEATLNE
Test: PBM E-score (8-mer binding enrichment) (E-score (-0.5 to 0.5)); higher = stronger / more preferred TF binding
Conditions: protein concentration: 100 nM; construct: GST-full length
Protocol: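 Universal 'all 10-mer' protein binding microarrays (Agilent AMADID 015681) probed with GST-tagged S. cerevisiae TFs (full-length or DBD) made by in vitro transcription/translation (PURExpress), about 100-200 nM. Bound TF was detected with fluorescent anti-GST. Each ungapped 8-mer (which stands for itself and its reverse complement) is scored by the PBM enrichment score (E-score), a modified Wilcoxon-Mann-Whitney statistic from -0.5 to +0.5, computed with the Universal PBM Analysis Suite. Scale: above 0.35 generally sequence-specific binding.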

| Sequence | PBM E-score |
| --- | --- |
| CCAACAAC | 0.0446 |
| GATCTTGA | 0.0634 |
| ATGTTTGG | 0.0803 |
| AAAGTTGA | -0.0882 |
| CCTCTACA | -0.0182 |
| GACCCCCC | -0.45 |
| ATACTTCG | -0.0772 |
| CTTCGGAA | 0.102 |
| CACTTAAA | 0.0981 |
| AGCATTTC | 0.131 |
| AGGCTCAC | -0.154 |
| AGAATAAT | 0.24 |
| TCTTGGAA | 0.0839 |
| AGGCCACC | -0.175 |
| TAAAAGCA | 0.129 |
| CTATCTCC | 0.106 |
| AGCCGACA | -0.251 |
| AATCTTCG | -0.0143 |
| TGAACGCA | 0.0537 |
| CGGTGATC | -0.16 |
| CCTTCTTC | -0.168 |
| ACGGCTGA | -0.0659 |
| AATCCTCC | -0.0151 |
| AACTGTCG | -0.0529 |
| AGCGACAC | 0.0189 |

| Sequence | PBM E-score |
| --- | --- |
| CGATAGGA | -0.0346 |
| ACGGACGG | -0.0731 |
| CACAGCTA | -0.0953 |
| ATGTGGGC | 0.0796 |
| CATTACGC | 0.114 |
| CCCCAGCC | -0.212 |
| CGTCGCCC | -0.187 |
| AATCCCAC | 0.0193 |
| GCTCCAGA | -0.179 |
| ATGTATAA | 0.221 |
| ATGGAAGA | -0.0919 |
| CAAGATAC | -0.0123 |
| CAGGTGGG | -0.0568 |
| ATAAGCAT | 0.0575 |
| TGGGCCAA | -0.166 |
| GAAAACAA | 0.199 |
| GGAGATTA | 0.0136 |
| AAGCGATG | 0.045 |
| TGTAACAA | 0.166 |
| CAGGTGGA | -0.135 |
| AATAGGGC | -0.126 |
| ACTTTCAT | 0.0531 |
| AACGCCCC | -0.235 |
| ATCAGAAA | 0.0186 |
| ATTCTCAG | -0.0714 |

Single entries from above.
For PBM E-score, ATAAGCAT is entered as 0.0575
For PBM E-score, ATTCTCAG is entered as -0.0714
For PBM E-score, TGTAACAA is entered as 0.166
For PBM E-score, AATCCCAC is entered as 0.0193

Following part

| Sequence | PBM E-score |
| --- | --- |
| CTAGTGAG | -0.0612 |
| CTTAACTA | 0.16 |
| ATCTTAAG | 0.066 |
| CGTCTGAC | 0.066 |
| ATCTTAAA | 0.18 |
| ACGGCTCT | -0.0261 |
| CAATAAGA | 0.16 |
| ATCCCCGA | -0.12 |
| ATACTTCA | 0.0363 |
| CAAGCGGA | -0.0778 |
| GAGCCCCC | -0.392 |
| CCTTGCTA | 0.00045 |
| GGAGGCGA | -0.0372 |
| AATCCTTG | 0.0744 |
| AAAGGCAT | 0.0964 |
| CTGCGATC | -0.0633 |
| AGCTGAGC | -0.223 |
| AGTTCTCG | 0.0851 |
| AATATCAC | 0.222 |
| CAGCGACC | -0.215 |
| AAGTCAAC | 0.0764 |
| CCTCATTA | 0.187 |
| ATTTGCTG | 0.0994 |
| TCGCCAAA | -0.047 |
| AAAGTAAA | 0.138 |

| Sequence | PBM E-score |
| --- | --- |
| CTTTTCCC | -0.0693 |
| AGAAAGTG | 0.0778 |
| ATGAGTAA | 0.284 |
| ATTGCATC | 0.0946 |
| AATGGGAA | 0.0119 |
| AACATGGC | 0.00524 |
| GGGGCACC | -0.311 |
| ATACAATG | 0.193 |
| CGGTGAAA | 0.116 |
| AAGAAGAT | 0.0393 |
| GCTCCACA | -0.182 |
| ACGAAAAG | 0.153 |
| CAACTGAC | -0.00041 |
| GAAAAAGC | 0.0808 |
| TCTGCAAA | -0.107 |
| AGCGCCGA | -0.16 |
| AGAGCCTA | 0.0332 |
| GTACATAC | 0.0502 |
| ATCACAAC | 0.0374 |
| CTCCTTTA | -0.126 |
| ATGCTATA | 0.0819 |
| AAGAAATA | 0.194 |
| AACACGTT | -0.00312 |
| GCAATAGA | -0.0281 |
| AGCTATTA | 0.0802 |

| Sequence | PBM E-score |
| --- | --- |
| CGCAACTA | 0.249 |
| TCTGACAA | 0.025 |
| CCGTTCCA | -0.0072 |
| CAAGAACC | 0.182 |
| TGCCGTAA | 0.0981 |
| CGTTAACG | 0.151 |
| GAGCCTAA | -0.0251 |
| ATAATTCA | 0.282 |
| GAAGGCGC | -0.233 |
| ACACATAG | -0.0796 |
| GACTCGTA | -0.126 |
| ACAGTTAG | 0.112 |
| AGAGTGTG | 0.0481 |
| CAAAGCGG | -0.00846 |
| AGCGTCAT | 0.00495 |
| CTTTACGC | 0.105 |
| CAATCCAG | 0.16 |
| CACTATGG | -0.0816 |
| CAAATCTG | -0.00824 |
| ACATAAGT | 0.159 |
| GATTAAGC | 0.166 |
| AAACTTCA | 0.0931 |
| CTCCCCGA | -0.183 |
| ACGCGACG | 0.172 |
| CACTACAA | 0.184 |

| Sequence | PBM E-score |
| --- | --- |
| ACGGCGAT | 0.0211 |
| AAAGTTCT | 0.0391 |
| AATTTAGC | 0.0858 |
| GAAACTGA | -0.116 |
| CCGACCTA | 0.0425 |
| AAAGACCG | -0.0827 |
| CGCCTTGA | -0.19 |
| TCGGTCAA | 0.0943 |
| CGTCGCTA | 0.11 |
| GCACTCCC | -0.0915 |
| ATCGAGAT | 0.0259 |
| GAAGAAAA | 0.0429 |
| ATCGGTTA | 0.165 |
| GCCACCGC | -0.163 |
| CCCTGGCC | -0.333 |
| CTTTATTC | 0.107 |
| GTTTATAA | 0.224 |
| CGAGTCTC | -0.136 |
| CGACCTAA | 0.101 |
| ATAACTAC | 0.177 |
| AGAAGAGG | -0.252 |
| CACCCCTC | -0.256 |
| CAAGATTG | 0.0575 |
| CCTGCAGG | -0.062 |
| CATAGTCA | 0.0745 |

| Sequence | PBM E-score |
| --- | --- |
| ACCCGTGC | -0.177 |
| ATGCCTGG | -0.143 |
| CCCATACA | -0.115 |
| ACCTAAAC | 0.122 |
| ACAGCGGG | 0.0111 |
| ATTGCAGC | -0.0301 |
| GCTACGTA | 0.0655 |
| ACTTGCAT | 0.117 |
| AGATCGCC | -0.0232 |
| CATAGGAC | -0.142 |
| CAGAACGA | 0.201 |
| GTTCTACA | -0.11 |
| CGGCTGCA | -0.303 |
| ATCCTAGC | 0.119 |
| AGAAACCA | 0.195 |
| GGGGAAAA | 0.0988 |
| ATGGATAC | 0.0687 |
| AAACAAAG | 0.185 |
| GTCGCCAC | -0.132 |
| AAGTAAAC | 0.0216 |
| GTACCGAC | -0.125 |
| AGAACTCT | -0.145 |
